Results from PubChem BioAssay AID504834 (National Center for Advancing Translational Sciences (NCATS), 2011).
About 22,000 (6.9%) of roughly 320,000 compounds were called active. The inconclusive results got no clear call from the source; some entries with a clear call stand among them for comparison. The call rests on the fitted dose curve; in most records, active means well fitted inhibition curve with a large enough effect; inconclusive means small, poorly fitted or top-dose-only effect, or another doubt; inactive means no such curve, though single readings can be large or run the other way. Potencies beside an inconclusive call are fits to weak or partial responses and may not hold up.

test: Primary qHTS for delayed death inhibitors of the malarial parasite plastid, 96 hour incubation; settings: P. falciparum luciferase reporter growth; series mostly up to 28.7 µM; activity change, negative = inhibition: at the top concentration
Method in brief: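 Plates of compound plus infected erythrocytes (2% hematocrit, 0.05% parasitemia final) incubate 96 hours, 37 C, 5% CO2. Detection reagent added; reduced luminescence from the parasites' luciferase reporter flags inhibition.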
On the % scale 0 is the no-effect control and ±100 the full control effect; potency means the concentration at half of the fitted maximal effect.

**Q.** For Cn1c(SCC(=O)NCc2ccco2)nnc1-c1c[nH]c2ccccc12, which “activity change, negative = inhibition” value is on record?
**A.** inactive: 35.5%

**Q.** Which Potency does the source give for CC(=O)N1CCN(c2ccc(Nc3ncnc4c3oc3ccccc34)cc2)CC1 here?
**A.** inconclusive: 18.5 µM [inhibitor, single point]

**Q.** With NCCC(=O)N1c2ccccc2Sc2ccc(Cl)cc21 as the molecule, how does the “activity change, negative = inhibition” value read?
**A.** inactive: -2.93%

**Q.** Which “activity change, negative = inhibition” value does the source give for O=C(C1=C(O)C(=O)N(CCc2ccccc2)C1c1cccs1)c1ccco1 (configuration not stated) here?
**A.** inactive: -14.5%

**Q.** For CC[N+](CC)(CC#Cc1ccccc1)CC#Cc1ccccc1, which Potency is on record?
**A.** inconclusive: 1.17 µM [inhibitor, full curve, poor fit]

**Q.** With CCC[C@@H](CN[C@@H](CNC)[C@H](C)CC)NCC1CCC(C(C)(C)C)CC1 (some centres not stated) as the molecule, how does the Potency read?
**A.** active: 3.29 µM

**Q.** For O=C(CN(Cc1ccccc1)C(=O)CCl)c1cccc(Br)c1, which Potency is on record?
**A.** inconclusive: 11.7 µM [inhibitor, partial curve]

**Q.** For CCN(Cc1ccccc1)C(=O)CCS(=O)(=O)c1cc2c(cc1Cl)NC(=O)CO2, which Potency is on record?
**A.** inconclusive: 18.5 µM [inhibitor, single point]

**Q.** For CCN(CC(=O)Nc1ccccc1OC)C(=O)c1ccc(N(C)S(=O)(=O)c2ccc(C)cc2)cc1, which Potency is on record?
**A.** inconclusive: 10.4 µM [inhibitor, single point]

**Q.** For CCC1=Nc2cc(C(=O)O)ccc2Sc2ccccc21, which Potency is on record?
**A.** inconclusive: 18.5 µM [inhibitor, single point]

**Q.** With CCOC(=O)C1(CCOc2ccccc2)CCN(Cc2cc(OC)c3c(c2)OCO3)CC1 as the molecule, how does the Potency read?
**A.** inconclusive: 16.5 µM [inhibitor, partial curve, poor fit]

**Q.** For O=C(CSc1nc(-c2ccccc2)c(-c2ccccc2)[nH]1)Nc1ccc2c(c1)OCO2, which Potency is on record?
**A.** inconclusive: 0.586 µM [inhibitor, full curve, poor fit]

**Q.** Which “activity change, negative = inhibition” value does the source give for O=C(Nc1ccc(-c2nc3cccnc3s2)cc1)c1ccc(Cl)nc1 here?
**A.** inactive: 5.56%

**Q.** Which “activity change, negative = inhibition” value does the source give for CCCCCC(=O)Nc1ccc2ccccc2c1 here?
**A.** inactive: 82.7%

**Q.** With Cc1ccc(O)c(NC(=O)CSc2n[nH]c(C)c2[N+](=O)[O-])c1 as the molecule, how does the Potency read?
**A.** inconclusive: 1.47 µM [inhibitor, partial curve, poor fit]

**Q.** For COc1ccc(C(=O)Cn2nc(CNc3ccc(Br)cc3)[n+]3c2CCCCC3)cc1, which Potency is on record?
**A.** active: 1.85 µM

**Q.** For CCOc1ccc2ccccc2c1CNc1nnnn1CC, which Potency is on record?
**A.** inconclusive: 18.5 µM [inhibitor, single point]

**Q.** For Cc1ccc(NC(=O)CSc2ncnc3ccccc23)cc1S(=O)(=O)N1CCCCC1, which Potency is on record?
**A.** inconclusive: 11.7 µM [inhibitor, single point]

**Q.** Which Potency does the source give for COc1ccc(OCCCC(=O)Nc2ccc3c(c2)OCO3)cc1 here?
**A.** inconclusive: 0.208 µM [inhibitor, partial curve, poor fit]

**Q.** Which Potency does the source give for COc1cccc(CNC(=O)CCC2CCCN(C(=O)C3=CC(=O)CC(C)(C)O3)C2)c1 (configuration not stated) here?
**A.** inconclusive: 18.5 µM [inhibitor, single point]

**Q.** Which Potency does the source give for Cc1nc2ccccn2c(=O)c1CCN1CCC(C(=O)c2ccc(F)cc2)CC1 here?
**A.** active: 10.7 µM

**Q.** For CCOc1ncccc1C(=O)NNC(=O)c1csc(N2CCOCC2)n1, which Potency is on record?
**A.** inconclusive: 18.5 µM [inhibitor, single point]

**Q.** With N#Cc1nc(Cc2ccccc2)oc1NCc1cccnc1 as the molecule, how does the Potency read?
**A.** inconclusive: 14.7 µM [inhibitor, partial curve, poor fit]

**Q.** Which Potency does the source give for O=C(CCS(=O)(=O)c1ccccc1F)Nc1ccc(N2CCN(Cc3ccccc3)CC2)cc1 here?
**A.** inconclusive: 11.7 µM [inhibitor, single point]

**Q.** For N=C1/C(=C\c2ccc(OC(=O)c3ccco3)cc2)C(=O)N=C2SC(N3CCCCC3)=NN12, which “activity change, negative = inhibition” value is on record?
**A.** inactive: 11.7%

**Q.** For O=C(O)c1ccc(NC(=O)c2ccccc2NC(=O)c2ccccc2Br)cc1, which Potency is on record?
**A.** inconclusive: 18.5 µM [inhibitor, single point]

**Q.** Which Potency does the source give for Clc1c(-c2nnc3n2CCC3)sc2ccccc12 here?
**A.** inconclusive: 18.5 µM [inhibitor, single point]

**Q.** With Cc1ccccc1CNC(=O)C(=O)NCCC1CCCCN1S(=O)(=O)c1cccs1 (configuration not stated) as the molecule, how does the Potency read?
**A.** active: 11.7 µM

**Q.** With CC1CCCN(C(=O)c2cc3c(=O)n4ccccc4nc3s2)C1 (configuration not stated) as the molecule, how does the “activity change, negative = inhibition” value read?
**A.** inactive: -1.88%

**Q.** With CCn1c(COc2ccccc2)nnc1SCC(=O)Nc1cc(OC)ccc1OC as the molecule, how does the Potency read?
**A.** inconclusive: 0.586 µM [inhibitor, full curve, poor fit]

**Q.** For O=[N+]([O-])c1ccc(-c2ccc(/C=N/Nc3nc(NCc4ccccc4)nc(N4CCOCC4)n3)o2)cc1, which Potency is on record?
**A.** inconclusive: 3.29 µM [inhibitor, partial curve, poor fit]

**Q.** For COC(=O)c1ccc(NC(=O)COc2ccc(C3C(C#N)=C(N)Oc4c3ccc3ccccc43)cc2OC)cc1 (configuration not stated), which Potency is on record?
**A.** inconclusive: 18.5 µM [inhibitor, single point]

**Q.** With O=C(OC1CCCCC1)c1ccc(NC(=O)C2CCCCC2)cc1 as the molecule, how does the Potency read?
**A.** active: 11.7 µM

**Q.** With O=C(c1cccc([N+](=O)[O-])c1)N1CCN(c2ccc(N3CCOCC3)nn2)CC1 as the molecule, how does the Potency read?
**A.** inconclusive: 2.33 µM [inhibitor, full curve, poor fit]

**Q.** For Cc1[nH]c2ccc(OCc3ccccc3)cc2c1CCN, which Potency is on record?
**A.** inconclusive: 18.5 µM [inhibitor, single point]

**Q.** With O=C(Nc1ccc([N+](=O)[O-])cc1)c1nc[nH]c1C(=O)NC1CCCCC1 as the molecule, how does the Potency read?
**A.** inconclusive: 18.5 µM [inhibitor, single point]

**Q.** Which Potency does the source give for COc1cc2c(cc1OC)C(C)N(C(=S)NC(=O)c1ccccc1)CC2 (configuration not stated) here?
**A.** inconclusive: 1.17 µM [inhibitor, partial curve, poor fit]

**Q.** With Cc1cccnc1NC(=O)c1cccc(S(=O)(=O)N2CCCc3ccccc32)c1 as the molecule, how does the Potency read?
**A.** inconclusive: 0.465 µM [inhibitor, full curve, poor fit]

**Q.** For CCOC(=O)C1=C(COC(=O)/C=C/c2ccc(Cl)cc2)NC(=O)NC1C (configuration not stated), which “activity change, negative = inhibition” value is on record?
**A.** inactive: 24.7%

**Q.** For CCC(=O)c1ccc2c(c1)N(CCCN(C)C)c1ccccc1S2, which Potency is on record?
**A.** inconclusive: 19 µM [inhibitor, single point]

**Q.** With Cc1ccccc1C(=O)c1cccn1CC(=O)NCC1CCCO1 (configuration not stated) as the molecule, how does the Potency read?
**A.** active: 10.4 µM

**Q.** With CCc1cc2c(=O)n(CC(=O)NCCc3ccc(OC)c(OC)c3)cnc2s1 as the molecule, how does the Potency read?
**A.** inconclusive: 0.465 µM [inhibitor, full curve, poor fit]
